The other results are listed elsewhere or left out. Further columns of the screen follow, without active or inactive calls.
Assays:
[1] = growth inhibition of wild-type GFP E. coli, dose response, h38 mutant RFP, cherry-pick (AID 977622); conditions: E. coli mixed culture, 24 h, total growth OD600 at 50 uM
[2] = tested on: E. coli h38 humanized mutant ribosome RFP fluorescence, mixed culture, 24 h; assay: as above; conditions: h38 mutant RFP at 50 uM

| SMILES | activity change [1] | activity change [2] |
| --- | --- | --- |
| CCCCn1c(NS(=O)(=O)c2ccc(C)cc2)c(C(=O)OCC)c2nc3ccccc3nc21 | -21.7% | -0.659% |
| CC(C)Cc1nc(N2CCNCC2)c(C#N)c2c1CCC2 | -29.9% | -9.06% |
| O=C(c1ccc(Cl)cc1)C1CCCN(Cc2cccc3cnccc23)C1 (configuration not stated) | -36.6% | 0.893% |
| Nc1c(C(=O)NCCN2CCOCC2)c2nc3ccccc3nc2n1Cc1ccccc1 | -4.54% | – |
| CC(=O)OC1N=C(c2ccccc2Cl)c2cc(Br)ccc2NC1=O (configuration not stated) | -25.7% | -59.6% |
| Cc1c(C(=O)Nc2ccccc2)c2cc(O)ccc2n1Cc1ccccc1 | 2.52% | 10.2% |
| CN1CCC(c2c[nH]c3ccccc23)C1 (configuration not stated) | -6.23% | – |
| O=[N+]([O-])c1ccc(N2CCOCC2)c2c1no[n+]2[O-] | -10.2% | -13.5% |
| CN(c1ccccc1)c1ccc([N+](=O)[O-])c2nonc12 | -27.2% | -2.96% |
| CCOC(=O)[C@]12Cc3ccccc3[C@H]1N(C)C(=O)c1cc(OC)ccc12 | -45.4% | -29.1% |
| CCOC(=O)c1c(C)n(Cc2ccccc2)c2ccc(O)cc12 | -33.8% | -28.1% |
| CCOC(=O)C12C(=O)OCC1C2c1ccccc1 (configuration not stated) | 7.21% | 13.9% |
| CSc1ccc(CN2CCN(Cc3ccccc3Cl)CC2)cc1 | -35.5% | 43.6% |
| Cc1c(-c2cccc(Cl)c2)nc2ccccc2c1C(=O)N1CCC2(CC1)OCCO2 | -19.6% | – |
| COc1cc(O)c2c(c1)/C=C/C[C@H](O)[C@H](O)C(=O)CCC[C@H](C)OC2=O | -25.3% | -14.5% |

2 entries picked at random from the list so far, as already listed:

| SMILES | activity change [1] | activity change [2] |
| --- | --- | --- |
| CCCCn1c(NS(=O)(=O)c2ccc(C)cc2)c(C(=O)OCC)c2nc3ccccc3nc21 | -21.7% | -0.659% |
| CCOC(=O)[C@]12Cc3ccccc3[C@H]1N(C)C(=O)c1cc(OC)ccc12 | -45.4% | -29.1% |
